This passage reports isolated mass and isolated yield results from paper PMC13410438 (Small (Weinheim an Der Bergstrasse, Germany), 2026).

Some peptides are written in HELM: one residue between dots, names in brackets for other building blocks, links after the first $.

This data set can be described thus: general procedure: Fmoc solid-phase peptide synthesis; 2-chlorotrityl chloride (2-CTC) resin (100-200 mesh); HBTU, HOBt, DIPEA. The conditions noted are these: whole synthesis.

Substance “PEPTIDE1{[Ole].[Dap].K.K.K}|PEPTIDE2{[Ole]}$PEPTIDE1,PEPTIDE2,2:R3-1:R2$$$V2.0” registered an isolated mass of 25.1 mg. This substance also showed an isolated yield (scale of the general procedure 300.8 µmol) of 81%.
